This is an account of results in paper PMC5870580.

No constants are given. Whether binding was seen depends on the method and setting. Binding seen in cells or lysates may run through a third protein. A result given as binding can be weak or reduced; the word gives no strength. Tags and fused reporters may be left off the sequences shown.

Experiment [1] concerns the target T1, Myc-tagged CACUL1 (human) (UniProt Q86Y37).
T1 sequence: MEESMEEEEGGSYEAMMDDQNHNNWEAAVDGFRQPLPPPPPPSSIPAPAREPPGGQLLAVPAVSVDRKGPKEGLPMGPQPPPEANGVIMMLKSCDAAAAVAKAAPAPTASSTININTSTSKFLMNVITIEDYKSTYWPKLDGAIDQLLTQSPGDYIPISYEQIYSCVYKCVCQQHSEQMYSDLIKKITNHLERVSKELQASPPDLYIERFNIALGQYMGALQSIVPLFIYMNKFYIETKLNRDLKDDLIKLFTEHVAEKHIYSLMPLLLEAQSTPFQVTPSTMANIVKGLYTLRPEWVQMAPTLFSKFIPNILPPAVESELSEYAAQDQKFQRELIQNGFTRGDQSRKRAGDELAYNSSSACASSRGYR
As to the kind of experiment: co-IP; HEK293 cells co-transfected with tagged constructs; lysates incubated overnight at 4 °C with the antibody against the tag (1:200), protein A/G agarose beads, western blot; for GFP-CACUL1 and Myc-PPARγ with and without rosiglitazone. A general note: In western blotting, separated proteins are transferred to a membrane and probed.

Experiment [2] addresses FLAG-tagged N-terminal region of SIRT1. Described as above.

“GFP-fused PPARγ-E/F domain (domain or fragment)”: the binding entry in experiment [1] is on record as “binds”.

B1: GFP-CACUL1 (protein, UniProt Q86Y37 1-369)
chain: T1 sequence
Regarding B1, in experiment [2], the binding result is “binds”.
